About 5,400 (1.8%) of roughly 300,000 compounds were called active. Inconclusive means that the source gave no clear call. Such entries were picked first, then a sample of the others. Calls come from the whole dose curve; tested in HEK293 cells. Potencies of inconclusive entries are doubtful fits and often do not repeat.
assay: qHTS for inhibitors of binding or entry into cells for Marburg Virus; conditions: Marburg virus pseudotyped entry inhibition, cell reporter; series mostly up to 37.8 µM
Potency is the fitted concentration of half-maximal effect.

Row | SMILES | Potency
1 | Cc1ccccc1NC(=O)C1CCCN1/C=C/C(=O)C(F)(F)F (stereo not given) | inconclusive: 4.47 µM [activator, single point]
2 | COc1ccc(N(C(=O)CCl)C(C(=O)NCCc2ccccc2)c2cccs2)cc1 (stereo not given) | inconclusive: 8.91 µM [inhibitor, partial curve, poor fit]
3 | O=C(CNS(=O)(=O)c1ccccc1F)NNC(=O)c1ccc(Br)cc1 | inconclusive: 1.26 µM [activator, single point]
4 | O=C(CN(C(=O)c1csnn1)c1ccc2c(c1)OCCO2)NCc1ccccc1 | inactive
5 | CC(C)c1ccc2occ(CC(=O)Nc3cccc(C(F)(F)F)c3)c2c1 | inconclusive: 3.55 µM [inhibitor, single point]
6 | COc1ccc(OC)c(NC(=O)CCc2c(C)nc3c(c(C)nn3C(C)(C)C)c2C)c1 | inconclusive: 5.62 µM [inhibitor, single point]
7 | COc1cc(NC(=O)C/C(C)=N/NC(=O)c2cccs2)c(OC)cc1Cl | inconclusive: 35.5 µM [inhibitor, single point]
8 | COc1ccc2nc(SCC(=O)NC3CCCCC3)[nH]c2c1 | inconclusive: 35.5 µM [inhibitor, single point]
9 | COc1cc(/C=N/NC(=O)Cc2ccccc2)ccc1Oc1ccc([N+](=O)[O-])cc1[N+](=O)[O-] | inactive
10 | COc1ccc(C(=O)NC2CCN(C(=S)Nc3cccc(C)c3)CC2)cc1 | inconclusive: 29.1 µM [activator, single point]
11 | COc1ccnc(Oc2cc(Cl)cc(Cl)c2)c1C#N | inactive
12 | Cc1nnc(SCC(=O)NNC(=O)C(C)C)[nH]c1=O | inactive
13 | CCC(=O)Nc1ccc(Cl)c(NC(=S)NC(=O)COc2ccc(Cl)cc2)c1 | inconclusive: 0.112 µM [activator, full curve, poor fit]
14 | COc1ccc(-c2oc3ncnc(NCCN4CCOCC4)c3c2-c2ccc(OC)cc2)cc1 | inconclusive: 8.2 µM [inhibitor, partial curve, poor fit]
15 | CCOC(=O)C1=C(CC)OC(N)=C(C#N)C1c1ccc(OC)c(OC)c1OC (stereo not given) | inactive
16 | Cn1cnnc1SCc1ccc(C(=O)O)cc1 | inactive
17 | COc1ccc(/C=N/N2CCN(C3c4ccccc4-c4ccccc43)CC2)cc1OC | inconclusive: 0.112 µM [activator, full curve, poor fit]
18 | O=C(c1ccc(SCc2cccc(Br)c2)c([N+](=O)[O-])c1)N1CCN(c2ccccn2)CC1 | inconclusive: 6.31 µM [activator, single point]
19 | S=C(NCc1ccccc1)N1CCn2cccc2C1c1cccnc1 (stereo not given) | inconclusive: 22.4 µM [inhibitor, single point]
20 | Cc1cc2ncn(C(=O)c3ccc(F)cc3)c2cc1C | inactive
21 | CSCCC(NS(=O)(=O)c1ccc2c(c1)OCCO2)C(=O)N(C)Cc1ccc(C)cc1 (stereo not given) | inactive
22 | O=C(CCCOc1ccccc1)Nc1ccc(Cl)c(S(=O)(=O)N2CCOCC2)c1 | inconclusive: 35.5 µM [inhibitor, single point]
23 | COc1ccc(CS(=O)c2nc(C)cc(C)c2S(C)(=O)=O)cc1 (stereo not given) | inactive
24 | COc1ccc(/C=C2/C(=O)OCc3cc(OC)c(OC)cc32)cc1 | inconclusive: 4.47 µM [inhibitor, full curve, poor fit]

Some of the entries above in another layout.
Row	SMILES	Potency
20	Cc1cc2ncn(C(=O)c3ccc(F)cc3)c2cc1C	inactive
21	CSCCC(NS(=O)(=O)c1ccc2c(c1)OCCO2)C(=O)N(C)Cc1ccc(C)cc1 (stereo not given)	inactive

(cont.)

Row | SMILES | Potency
25 | Cc1ccc(S(=O)(=O)N/N=C/c2ccc(OS(=O)(=O)c3ccc(C)c([N+](=O)[O-])c3)cc2)cc1 | inconclusive: 12.6 µM [inhibitor, partial curve, poor fit]
26 | Cc1c(Cl)cnc(NC(=O)COC(=O)/C=C/c2ccco2)c1Cl | inactive
27 | CCOC(=O)c1ccc(N2C(=O)C3C(/C=C/c4ccccc4)OC4(C(=O)c5ccccc5C4=O)C3C2=O)cc1 (stereo not given) | inactive
28 | CCCCCCn1c(CN2CCN(Cc3ccccc3)CC2)nc2c1c(=O)n(C)c(=O)n2C | inconclusive: 20.6 µM [inhibitor, partial curve, poor fit]
29 | CC1CCN(c2ccc(C(=O)O)cc2N)CC1 | inactive
30 | Cc1cccc(OCCOc2ccccc2C=C(C#N)C#N)c1 | inconclusive: 6.31 µM [activator, single point]
31 | CCn1c(Cc2ccccc2)nnc1SCC(=O)Nc1ccccc1N1CCOCC1 | inactive
32 | COc1ccc2cc(/C=N/NC(=O)CN(c3ccccc3C)S(=O)(=O)c3ccccc3)c(Cl)nc2c1 | inconclusive: 0.316 µM [activator, partial curve, poor fit]
33 | COC(=O)c1ccccc1NC(=O)Cn1nc(C(F)(F)F)c2c1CCCC2 | inconclusive: 35.5 µM [inhibitor, single point]
34 | CCN(c1ccccc1)S(=O)(=O)c1cc(C(=O)NCc2ccccn2)ccc1C | inactive
35 | CN(CC(=O)Nc1ccc(F)c(F)c1F)C(=O)CCCSc1nc2ccccc2[nH]1 | inconclusive: 22.4 µM [inhibitor, single point]
36 | Cn1cccc1-c1cc(C(=O)N/N=C/c2cc(Br)ccc2O)[nH]n1 | inconclusive: 7.08 µM [inhibitor, full curve, poor fit]
37 | COc1ccc(CN2CCN(Cc3csc(C(C)=O)c3)CC2CCO)c(C)c1C (stereo not given) | inconclusive: 7.94 µM [inhibitor, partial curve, poor fit]
38 | Cc1ccc(C)c(N2CCN(C(=O)Cn3c(C)c4cnn(-c5ccccc5)c(=O)c4c3C)CC2)c1 | inconclusive: 7.94 µM [inhibitor, single point]
39 | O=C(NC(=O)c1c(Cl)cccc1Cl)Nc1ccc(Oc2cccnc2)nc1 | inactive
40 | CC1CN(C(=O)CCC(=O)NCCCN2CCC(Cc3ccccc3)CC2)c2cc(Cl)ccc2O1 (stereo not given) | active: 11.2 µM
41 | Cc1nnn(-c2nonc2N)c1C(=O)N/N=C/c1ccccc1O | inconclusive: 7.08 µM [inhibitor, full curve, poor fit]
42 | CC1CCCN(S(=O)(=O)c2ccc(C(=O)Nc3nnc(-c4ccco4)o3)cc2)C1 (stereo not given) | inconclusive: 0.891 µM [inhibitor, full curve, poor fit]
43 | COc1cccc(C(CNc2ccc(S(=O)(=O)N3CCN(C)CC3)cc2[N+](=O)[O-])N(C)C)c1 (stereo not given) | inconclusive: 11.2 µM [inhibitor, partial curve]
44 | COc1ccccc1-n1cc(C(=O)NCC(=O)NCc2ccc(F)cc2)c2ccccc2c1=O | inconclusive: 35.5 µM [inhibitor, single point]
45 | CC(=O)OCCOc1nc(NC(C)C)nc(NC(C)C)n1 | inactive
46 | Cc1ccc(NS(=O)(=O)c2ccc3c(c2)NC(=O)CCS3)cc1F | inactive
47 | CCCC(=O)Oc1ccc2c(C)cc(=O)oc2c1 | inconclusive: 28.2 µM [activator, partial curve, poor fit]
48 | Cn1c(=O)c2c(ncn2C)n(C)c1=O | inconclusive: 0.316 µM [inhibitor, full curve, poor fit]

Row | SMILES | Potency
49 | O=S(=O)(O)c1cccnc1SCc1ccccc1 | inactive
50 | O=C(CN1C(=O)C2C3C=CC(C3)C2C1=O)NCCc1ccccc1 (stereo not given) | inconclusive: 7.08 µM [activator, full curve]
51 | COc1ccc(/C=N/NC(=O)Cn2cnc3ccccc3c2=O)cc1 | inconclusive: 7.94 µM [activator, partial curve, poor fit]
52 | CC(C)CC(C)NNC(=O)c1cc2ccccc2[nH]1 (stereo not given) | inconclusive: 35.5 µM [activator, single point]
53 | CCOc1ccccc1C(=O)Nc1nnc(COC)s1 | inactive
54 | COc1c(OC(C)=O)ccc(/C=C/c2ccc3cccc(OC)c3n2)c1[N+](=O)[O-] | inconclusive: 35.5 µM [inhibitor, single point]
55 | COc1cccc(CN(C)CC(=O)Nc2cccc3ccccc23)c1 | inconclusive: 2.82 µM [inhibitor, single point]
56 | O=C(N/N=C/c1ccnc2ccccc12)c1ccccc1O | inactive
57 | CCC[n+]1c(C)sc2c3c(ccc21)CCCC3 | inconclusive: 35.5 µM [inhibitor, single point]
58 | CN(c1ccccc1)c1ccc(/C=C(\CCC(=O)O)c2nc3ccccc3s2)cc1[N+](=O)[O-] | inactive
59 | CC(C)c1ccc(-c2nnn(CCC(=O)O)n2)cc1 | inconclusive: 2.51 µM [inhibitor, full curve, poor fit]
60 | N#Cc1ccc(-c2ccc(OCC(O)Cn3nnc4ccccc43)cc2)cc1 (stereo not given) | inconclusive: 17.8 µM [inhibitor, single point]
61 | CC1CCCCC1NC(=O)C1CCN(S(=O)(=O)c2ccc3c(c2)CCC(=O)N3)CC1 (stereo not given) | inactive
62 | COC(=O)C1=C(C)NC2=C(C(=O)CCC2)C1c1cn(Cc2ccc(Cl)cc2Cl)nc1-c1ccccc1 (stereo not given) | inconclusive: 22.4 µM [inhibitor, single point]
63 | COCCCNc1nc2c(c(=O)n(C)c(=O)n2C)n1Cc1ccccc1 | inactive
64 | Cc1onc(-c2ccccc2)c1C(=O)Nc1nc(-c2ccc(F)c(F)c2)cs1 | inactive
65 | C/C(Cl)=C\Cn1c(NCCc2ccccc2)nc2c1c(=O)n(C)c(=O)n2C | active: 3.66 µM
66 | Cc1nonc1N1CCN(Cc2cn[nH]c2-c2ccc(F)cc2F)CC1 | inconclusive: 1 µM [inhibitor, full curve, poor fit]
67 | O=S(=O)(CCS(=O)(=O)c1ccccc1)c1ccccc1 | inconclusive: 1 µM [inhibitor, partial curve, poor fit]
68 | Cc1nn(C)cc1S(=O)(=O)Nc1ncccn1 | inactive
69 | COc1ccc(/C=N/N2C(C)CCCC2C)cc1OC (stereo not given) | inconclusive: 5.62 µM [inhibitor, single point]
70 | Cc1ccc(N2CC(C(=O)N3CCC4(CC3)CC(=O)c3ccccc3O4)CC2=O)cc1 (stereo not given) | inconclusive: 20 µM [inhibitor, single point]

Source: PubChem BioAssay AID540276 (National Center for Advancing Translational Sciences (NCATS), 2011)
